Assay results: patent US20090281097A1, “NITROGEN-CONTAINING HETEROCYCLIC COMPOUND” (Takeda Pharmaceutical Company Limited, priority 2006, published 2009)
pIC50: −log10 of the molar value. Structures can show the parent of a compound that is named as a salt. Some entries share one result that the patent states for a list of compounds.

Sequences of proteins named here, by UniProt entry; tags and fusion partners are left off. Residues count along the entry.
UniProt O00763, 117-2458 limits assumed: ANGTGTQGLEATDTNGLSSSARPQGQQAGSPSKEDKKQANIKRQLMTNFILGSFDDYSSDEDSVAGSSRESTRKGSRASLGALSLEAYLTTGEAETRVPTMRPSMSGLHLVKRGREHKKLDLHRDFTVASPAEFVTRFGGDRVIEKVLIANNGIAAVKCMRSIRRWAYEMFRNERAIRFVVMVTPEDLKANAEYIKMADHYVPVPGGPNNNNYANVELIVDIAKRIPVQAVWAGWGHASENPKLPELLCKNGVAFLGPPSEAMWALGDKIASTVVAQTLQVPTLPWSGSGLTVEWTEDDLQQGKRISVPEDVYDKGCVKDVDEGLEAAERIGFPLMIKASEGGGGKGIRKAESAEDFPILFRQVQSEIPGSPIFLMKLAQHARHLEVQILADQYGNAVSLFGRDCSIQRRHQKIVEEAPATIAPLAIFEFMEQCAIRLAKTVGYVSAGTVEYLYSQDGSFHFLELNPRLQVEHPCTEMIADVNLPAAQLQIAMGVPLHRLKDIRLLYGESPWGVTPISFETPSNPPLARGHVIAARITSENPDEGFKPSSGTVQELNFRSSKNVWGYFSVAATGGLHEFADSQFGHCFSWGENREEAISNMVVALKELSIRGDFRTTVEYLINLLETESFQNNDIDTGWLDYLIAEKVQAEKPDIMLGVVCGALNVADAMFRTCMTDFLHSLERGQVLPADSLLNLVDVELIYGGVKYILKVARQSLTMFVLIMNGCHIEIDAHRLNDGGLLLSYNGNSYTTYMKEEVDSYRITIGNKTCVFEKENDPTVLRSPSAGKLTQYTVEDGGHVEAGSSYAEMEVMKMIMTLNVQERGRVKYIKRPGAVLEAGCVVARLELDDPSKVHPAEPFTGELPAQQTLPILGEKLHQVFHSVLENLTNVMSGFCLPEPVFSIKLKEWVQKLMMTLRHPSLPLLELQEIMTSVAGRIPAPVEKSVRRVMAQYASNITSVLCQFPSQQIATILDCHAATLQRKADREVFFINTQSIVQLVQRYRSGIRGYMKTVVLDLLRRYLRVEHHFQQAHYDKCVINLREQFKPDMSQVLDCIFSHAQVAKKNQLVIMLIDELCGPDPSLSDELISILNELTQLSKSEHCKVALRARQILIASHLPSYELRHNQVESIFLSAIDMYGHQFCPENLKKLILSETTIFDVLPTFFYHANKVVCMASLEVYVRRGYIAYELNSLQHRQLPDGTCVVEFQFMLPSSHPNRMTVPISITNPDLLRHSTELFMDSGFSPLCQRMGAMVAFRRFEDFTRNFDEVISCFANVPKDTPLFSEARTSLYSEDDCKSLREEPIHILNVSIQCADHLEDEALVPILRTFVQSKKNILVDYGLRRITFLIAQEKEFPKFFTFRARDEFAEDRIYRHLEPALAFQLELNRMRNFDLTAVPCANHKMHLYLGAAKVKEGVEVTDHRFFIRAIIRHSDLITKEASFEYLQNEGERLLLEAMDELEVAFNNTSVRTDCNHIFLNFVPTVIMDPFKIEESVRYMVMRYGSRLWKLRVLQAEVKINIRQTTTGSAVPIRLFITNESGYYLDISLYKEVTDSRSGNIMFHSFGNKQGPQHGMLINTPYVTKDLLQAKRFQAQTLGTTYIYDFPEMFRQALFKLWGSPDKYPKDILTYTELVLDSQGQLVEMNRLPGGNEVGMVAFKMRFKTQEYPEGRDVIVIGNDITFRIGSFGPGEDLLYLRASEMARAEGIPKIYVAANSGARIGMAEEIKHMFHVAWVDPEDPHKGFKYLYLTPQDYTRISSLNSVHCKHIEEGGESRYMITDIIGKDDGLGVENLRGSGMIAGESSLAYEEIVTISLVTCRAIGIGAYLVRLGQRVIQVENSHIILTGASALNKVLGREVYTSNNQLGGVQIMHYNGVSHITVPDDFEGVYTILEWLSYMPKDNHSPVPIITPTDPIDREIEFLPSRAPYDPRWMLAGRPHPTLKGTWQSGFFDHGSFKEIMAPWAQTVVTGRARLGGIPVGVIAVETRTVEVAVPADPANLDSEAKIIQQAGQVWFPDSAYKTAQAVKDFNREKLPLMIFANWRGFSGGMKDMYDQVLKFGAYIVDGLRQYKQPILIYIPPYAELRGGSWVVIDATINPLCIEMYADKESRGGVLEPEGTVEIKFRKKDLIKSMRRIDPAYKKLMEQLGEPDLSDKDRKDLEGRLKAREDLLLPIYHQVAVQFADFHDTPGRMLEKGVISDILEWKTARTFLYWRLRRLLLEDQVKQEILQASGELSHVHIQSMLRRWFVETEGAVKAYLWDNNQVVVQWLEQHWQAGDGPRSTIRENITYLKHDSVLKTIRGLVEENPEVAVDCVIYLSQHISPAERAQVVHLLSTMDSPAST

Columns and labels:
ACC2 (Nd) = biological target: T1, ACC2 (Nd) (Homo sapiens, UniProt O00763); experiment: ACC2 inhibitory activity (malachite green assay, recombinant N terminal deleted enzyme); format: biochemical; settings: 30° C., 200 uM ATP, 200 uM Acetyl-CoA, absorbance 620 nm
T1 construct: His tag (from vector pFAST-BacHTa; purified on Ni-NTA) (N); made in house; host or cells: SF-9 insect cells, baculovirus

ACC1 = biological target: T2, ACC1 (Homo sapiens, UniProt Q13085); experiment: ACC1 inhibitory activity (malachite green assay, recombinant enzyme); format: biochemical; settings: absorbance 620 nm
T2 construct: His tag (from vector pFAST-BacHTc; purified on Ni-NTA) (N); made in house; host or cells: SF-9 insect cells, baculovirus

Row | SMILES | pIC50 (ACC2 (Nd)) | pIC50 (ACC1)
1 | CCNC(=O)Nc1sc2ccccc2c1C(=O)N1CCC(N2CCOC(C(=O)N(CC)CC)C2)CC1 (stereo not shown) [Example 4, N,N-diethyl-4-{1-[(2-{[(ethylamino)carbonyl]amino}-1-benzothiophen-3-yl)carbonyl]piperidin-4-yl}morpholine-2-carboxamide] | ≥ 7.00 | ≥ 6.00
2 | CCNC(=O)Nc1sc2ccccc2c1C(=O)N1CCC(N2CCCC(C(=O)N(CC)CC)C2)CC1 (stereo not shown) [Example 7, N,N-diethyl-1′-[(2-{[(ethylamino)carbonyl]amino}-1-benzothiophen-3-yl)carbonyl]-1,4′-bipiperidine-3-carboxamide] | ≥ 7.00 | ≥ 6.00
3 | CCNC(=O)Nc1sc(-c2ccccc2)cc1C(=O)N1CCC(N2CCCC(C(=O)N(CC)CC)C2)CC1 (stereo not shown) [Example 8, N,N-diethyl-1′-[(2-{[(ethylamino)carbonyl]amino}-5-phenyl-3-thienyl)carbonyl]-1,4′-bipiperidine-3-carboxamide] | ≥ 7.00 | ≥ 6.00
4 | CCN(CC)C(=O)C1CCCN(C2CCN(C(=O)c3cc(-c4ccccc4)sc3NC(N)=O)CC2)C1 (stereo not shown) [Example 9, 1′-({2-[(aminocarbonyl)amino]-5-phenyl-3-thienyl}carbonyl)-N,N-diethyl-1,4′-bipiperidine-3-carboxamide] | ≥ 7.00 | ≥ 6.00
5 | CCNC(=O)Nc1sc2ccccc2c1C(=O)N1CCC(N2CCCC(C(=O)N3CCOCC3)C2)CC1 (stereo not shown) [Example 10, N-ethyl-N′-(3-{[3-(morpholin-4-ylcarbonyl)-1,4′-bipiperidin-1′-yl]carbonyl}-1-benzothiophen-2-yl)urea hydrochloride] | ≥ 7.00 | ≥ 6.00
6 | NC(=O)Nc1sc2ccccc2c1C(=O)N1CCC(N2CCCC(C(=O)N3CCOCC3)C2)CC1 (stereo not shown) [Example 11, N-(3-{[3-(morpholin-4-ylcarbonyl)-1,4′-bipiperidin-1′-yl]carbonyl}-1-benzothiophen-2-yl)urea] | ≥ 7.00 | ≥ 6.00
7 | CCNC(=O)Nc1sc2c(c1C(=O)N1CCC(N3CCCC(C(=O)N4CCOCC4)C3)CC1)CCCC2=O (stereo not shown) [Example 12, N-ethyl-N′-(3-{[3-(morpholin-4-ylcarbonyl)-1,4′-bipiperidin-1′-yl]carbonyl}-7-oxo-4,5,6,7-tetrahydro-1-benzothiophen-2-yl)urea] | ≥ 7.00 | ≥ 6.00
8 | CCNC(=O)Nc1sc(-c2ccccc2)cc1C(=O)N1CCC(N2CCCC(C(=O)N3CCOCC3)C2)CC1 (stereo not shown) [Example 13, N-ethyl-N′-(3-{[3-(morpholin-4-ylcarbonyl)-1,4′-bipiperidin-1′-yl]carbonyl}-5-phenyl-2-thienyl)urea] | ≥ 7.00 | ≥ 6.00
9 | NC(=O)Nc1sc(-c2ccccc2)cc1C(=O)N1CCC(N2CCCC(C(=O)N3CCOCC3)C2)CC1 (stereo not shown) [Example 14, N-(3-{[3-(morpholin-4-ylcarbonyl)-1,4′-bipiperidin-1′-yl]carbonyl}-5-phenyl-2-thienyl)urea] | ≥ 7.00 | ≥ 6.00
10 | CCNC(=O)Nc1sc(-c2ccccc2)nc1C(=O)N1CCC(N2CCCC(C(=O)N3CCOCC3)C2)CC1 (stereo not shown) [Example 15, N-ethyl-N′-(4-{[3-(morpholin-4-ylcarbonyl)-1,4′-bipiperidin-1′-yl]carbonyl}-2-phenyl-1,3-thiazol-5-yl)urea] | ≥ 7.00 | ≥ 6.00
11 | CCNC(=O)Nc1sc(-c2ccc(C(F)(F)F)cc2)cc1C(=O)N1CCC(N2CCC[C@@H](C(=O)N3CCOCC3)C2)CC1 [Example 17, N-ethyl-N′-{3-{[(3R)-3-(morpholin-4-ylcarbonyl)-1,4′-bipiperidin-1′-yl]carbonyl}-5-[4-(trifluoromethyl)phenyl]-2-thienyl}urea] | ≥ 7.00 | ≥ 6.00
12 | CCNC(=O)Nc1sc2ccccc2c1C(=O)N1CCC(N2CCCC(C(=O)N3CCCC3)C2)CC1 (stereo not shown) [Example 19, N-ethyl-N′-(3-{[3-(pyrrolidin-1-ylcarbonyl)-1,4′-bipiperidin-1′-yl]carbonyl}-1-benzothien-2-yl)urea] | ≥ 7.00 | ≥ 6.00
13 | CCNC(=O)Nc1sc2ccccc2c1C(=O)N1CCC(N2CCCC(C(=O)N3CCCCC3)C2)CC1 (stereo not shown) [Example 20, N-ethyl-N′-(3-{[3-(piperidin-1-ylcarbonyl)-1,4′-bipiperidin-1′-yl]carbonyl}-1-benzothien-2-yl)urea] | ≥ 7.00 | ≥ 6.00
14 | CNC(=O)Nc1sc2c(OC)cccc2c1C(=O)N1CCC(N2CCCC(C(=O)N3CCCCC3)C2)CC1 (stereo not shown) [Example 21, N-(7-methoxy-3-{[3-(piperidin-1-ylcarbonyl)-1,4′-bipiperidin-1′-yl]carbonyl}-1-benzothien-2-yl)-N′-methylurea] | ≥ 7.00 | ≥ 6.00
15 | CCNC(=O)Nc1sc2c(OC)cccc2c1C(=O)N1CCC(N2CCCC(C(=O)N3CCCCC3)C2)CC1 (stereo not shown) [Example 22, N-ethyl-N′-(7-methoxy-3-{[3-(piperidin-1-ylcarbonyl)-1,4′-bipiperidin-1′-yl]carbonyl}-1-benzothien-2-yl)urea] | ≥ 7.00 | ≥ 6.00
16 | CCN(C(=O)C1CCCN(C2CCN(C(=O)c3c(NC(=O)NC)sc4c(OC)cccc34)CC2)C1)C(C)C (stereo not shown) [Example 23, N-ethyl-N-isopropyl-1′-[(7-methoxy-2-{[(methylamino)carbonyl]amino}-1-benzothien-3-yl)carbonyl]-1,4′-bipiperidine-3-carboxamide] | ≥ 7.00 | ≥ 6.00
17 | CCNC(=O)Nc1sc2c(OC)cccc2c1C(=O)N1CCC(N2CCCC(C(=O)N(CC)C(C)C)C2)CC1 (stereo not shown) [Example 24, N-ethyl-1′-[(2-{[(ethylamino)carbonyl]amino}-7-methoxy-1-benzothien-3-yl)carbonyl]-N-isopropyl-1,4′-bipiperidine-3-carboxamide] | ≥ 7.00 | ≥ 6.00
18 | CCNC(=O)Nc1sc2nc(C)ccc2c1C(=O)N1CCC(N2CCCC(C(=O)N(CC)C(C)C)C2)CC1 (stereo not shown) [Example 25, N-ethyl-1′-[(2-{[(ethylamino)carbonyl]amino}-6-methylthieno[2,3-b]pyridin-3-yl)carbonyl]-N-isopropyl-1,4′-bipiperidine-3-carboxamide] | ≥ 7.00 | ≥ 6.00
19 | C[C@@H]1CCC[C@H](C)N1C(=O)C1CCCN(C2CCN(C(=O)c3c(NC(N)=O)sc4ccccc34)CC2)C1 (stereo partly drawn) [Example 26, N-{3-[(3-{[(2R,6S)-2,6-dimethylpiperidin-1-yl]carbonyl}-1,4′-bipiperidin-1′-yl)carbonyl]-1-benzothien-2-yl}urea] | ≥ 7.00 | ≥ 6.00
20 | CNC(=O)Nc1sc2ccccc2c1C(=O)N1CCC(N2CCCC(C(=O)N3[C@H](C)CCC[C@@H]3C)C2)CC1 (stereo partly drawn) [Example 27, N-{3-[(3-{[(2R,6S)-2,6-dimethylpiperidin-1-1′-yl]carbonyl}-1,4′-bipiperidin-1′-yl)carbonyl]-1-benzothien-2-yl}-N′-methylurea] | ≥ 7.00 | ≥ 6.00
